Results published in patent US20230132535A1, “PROLIFERATION SUPPRESSING AGENT FOR CANINE CANCER CELLS” (Japan Animal Referral Medical Center, priority 2020, published 2023).
For some assays here: At least one read-out could not be matched to a standard name with certainty. Some compounds share one wording; it may come from a single statement. At least one structure is not confirmed: it was looked up by name or label, or the drawing left a doubt.

Key:
[1] = test system: canine V595E transitional epithelial cancer cells (TCCV-Ka, TCCV-So, TCCV-Ec, TCCV-Ni, TCCV-Ic); experiment: Cell proliferation suppressing test (WST 1), five V595E transitional epithelial cancer established cell lines; assay type: cell-based; details: against all the cells used
From the text: Using five canine V595E transitional epithelial cancer established cell lines, taken from clinical cases by the inventors so far and cloned in approximately 80 passages, the cell proliferation suppressing activity of eight human BRAF inhibiting agents (GDC0879, AZ628, PLX4720, Encorafenib, Vemurafenib, Dabrafenib, RAF265, and CEP32496), which are available and have high cell proliferation suppressing activity, was investigated. In addition, in the xenograft test system, suppression of tumor growth (anti-tumor activity) was measured and the anti-tumor activity was investigated.
1,000 to 3,000 established cell lines (TCCV-Ka, TCCV-So, TCCV-Ec, TCCV-Ni, and TCCV-Ic) per well were spread on 96 well culture plates and cultured for 24 hours, then 8 BRAF inhibiting agents (GDC0879, AZ628, PLX4720, Encorafenib, Vemurafenib, Dabrafenib, RAF265, and CEP32496) dissolved in 0.1% DMSO were added with GDC0879, AZ628, Vemurafenib, Dabrafenib, and RAF265 at 0, 50, 100, 500, 1000, 5000, and 10000 nM, PLX4720 at 0, 1, 10, 100, 1000, 5000, and 10000 nM, Encorafenib at 0, 32, 63, 125, 250, 500, and 1000 nM, CEP32496 at 0, 3, 10, 30, 100, 300, and 1000 nM, the number of surviving cells after 24, 48, and 72 hours was measured using WST 1, and the cell proliferation suppressing activity was calculated.
One example of the reaction curve of the BRAF inhibiting agent against canine V595E transitional epithelial cancer cells (TCC V-So strain) was shown in FIG. 1.

[2] = test system: transitional epithelial cancer; details: canine transitional epithelial cancer with V595E; Decker B et al.; read-out: cell proliferation suppressing activity (IC50); cited from earlier work

Compound	sufficient proliferation suppressing activity (IC50: 200 nM or less) [1]	IC50 [2]
Cc1ccc(NC(=O)c2cccc(C(C)(C)C#N)c2)cc1Nc1ccc2ncn(C)c(=O)c2c1 [AZ628]	did not show sufficient proliferation suppressing activity	
CC(C)(C)c1nc(-c2cccc(NS(=O)(=O)c3c(F)cccc3F)c2F)c(-c2ccnc(N)n2)s1 [Dabrafenib]	did not show sufficient proliferation suppressing activity	
OCCn1cc(-c2ccc3c(c2)CC/C3=N\O)c(-c2ccncc2)n1 [GDC0879]	did not show sufficient proliferation suppressing activity	
CCCS(=O)(=O)Nc1ccc(F)c(C(=O)c2c[nH]c3ncc(-c4ccc(Cl)cc4)cc23)c1F [Vemurafenib]	did not show sufficient proliferation suppressing activity	8 µM
